The subject of this assay is L1210 leukemia ip in BDF1 mice, survival T/C. Briefly: NCI In Vivo Anticancer Drug Screen. Data for tumor model L1210 Leukemia (intraperitoneal) in B6D2F1 (BDF1) mice. To be noted: T/C endpoint: mean survival time, higher T/C = longer survival.
Setting [1] is: dose: 200.0 mg/kg/injection, schedule: Q04DX003 (ip), vehicle: Klucel (hydroxypropylcellulose) (HPC).
Where [2] appears, read: dose: 100.0 mg/kg/injection, schedule: Q04DX002 (ip), vehicle: saline with Tween-80.
[3] abbreviates: dose: 200.0 mg/kg/injection, schedule: Q01DX009 (ip), vehicle: saline with Tween-80.
Setting [4] is: dose: 400.0 mg/kg/injection, schedule: Q04DX003 (ip), vehicle: saline with Tween-80.
Where [5] appears, read: dose: 400.0 mg/kg/injection, schedule: Q01DX009 (ip), vehicle: saline.
Setting [6] is: dose: 400.0 mg/kg/injection, schedule: Q04DX003 (ip), vehicle: Klucel (hydroxypropylcellulose) (HPC).
Setting [7] is: dose: 400.0 mg/kg/injection, schedule: Q01DX009 (ip), vehicle: saline with Tween-80.
Setting [8] is: dose: 400.0 mg/kg/injection, schedule: Q04DX003 (ip), vehicle: saline.
Setting [9] is: dose: 100.0 mg/kg/injection, schedule: Q04DX003 (ip), vehicle: saline.
Where [10] appears, read: dose: 200.0 mg/kg/injection, schedule: Q04DX003 (ip), vehicle: saline.

The list does not hold the whole screen: it gathers tests that were run many times, whatever their T/C, doses with no T/C, and many T/C values between a quarter and a half above the control. Other doses and runs of a compound stand elsewhere. T/C gives the treated animals as a percentage of the vehicle group. Some doses have a count of surviving animals in place of a T/C: the source files T/C as zero there, which appears to mark a toxic dose or a test without result, not a measured value. Some doses without a T/C left all or most animals alive at the check, yet need not have been tolerated: survival well below the control is almost never listed, so the zero probably covers shortened survival too. Survivors were counted at the toxicity check, usually on the fifth day, unless a day is given; later deaths do not show. Schedules are NCI's codes, taken here to give the interval after Q, in days (D) or hours (H), and the number of doses after X. Some schedules carry Z or #; the key to these is not given. Some entries hold several experiments; the results are listed from low to high. Where survival is the endpoint, the PubChem record calls one and a half times the control and up active, and a quarter to a half above the control has no call in these data; cut-offs in other NCI protocols can differ. Some T/C values are followed by the survivors on the day toxicity was checked, most often the fifth; without a count, all were alive then.

In the case of `C=CCOCC(O)CN(CC(C)C)CC(C)C` (stereo not drawn), where the note is “dose: 400.0 mg/kg/injection, schedule: Q01DX009 (ip), vehicle: Klucel (hydroxypropylcellulose) (HPC)”, the survivor count is 1 of 6.

Regarding `CC(C)(C)CC(N)=O`, the T/C under setting [1] was 129 % of control. Regarding `CC(C)N(C(C)C)C(C)CCNc1c2ccccc2nc2cc(Cl)ccc12` (stereo not drawn), the T/C was 129 % of control (dose: 2.0 mg/kg/injection, schedule: Q01DX Z (ip), vehicle: methylcellulose (MC)) and 139 % of control (dose: 7.0 mg/kg/injection, schedule: Q01DX Z (ip), vehicle: methylcellulose (MC)). As for `CN(C)c1n[nH]c(N)n1`, the T/C is, setting by setting: under setting [2], 128 % of control; (dose: 100.0 mg/kg/injection, schedule: Q04DX002 (ip), vehicle: saline) 126 % of control.

For `O=C1C=CC(=O)N1`, the survivor count reads like this: (dose: 5.0 mg/kg/injection, schedule: Q04DX003 (ip), vehicle: saline) 3 of 6; (dose: 5.68 mg/kg/injection, schedule: Q01DX009 (ip), vehicle: saline with Tween-80) 2 of 6; (dose: 8.52 mg/kg/injection, schedule: Q01DX009 (ip), vehicle: saline with Tween-80) 0 of 6; (dose: 10.0 mg/kg/injection, schedule: Q01DX001 (ip), vehicle: acetone) 1 of 6; (dose: 20.0 mg/kg/injection, schedule: Q01DX001 (ip), vehicle: acetone) 0 of 6. With `CC(=O)c1cccc(NC(=S)NC(=O)/C=C/c2ccccc2)c1`, the survivor count under setting [3] is 4 of 6 and the survivor count under setting [4] was 0 of 6. With `O=C1NC(=O)C(O)(O)C(=O)N1`, the survivor count under setting [5] is given as 0 of 6.

In the case of `Cc1ccc(NC(=O)NCCCl)cc1NC(=O)NCCCl`, the survivor count under setting [6] is 6 of 6.

On to `CCCCCCCCCCCCCCCC(=O)N(CCCN)C(C)CCCN(CC)CC` (stereo not drawn), for which the survivor count by setting is: (dose: 100.0 mg/kg/injection, schedule: Q01DX009 (ip), vehicle: saline with Tween-80) 0 of 6; under setting [3], 1 of 6; under setting [7], 1 of 6. As for `CCN(CC)P(=O)(N1CC1)N1CC1`, the T/C runs as follows: (dose: 1.7 mg/kg/injection, schedule: Q01DX Z (ip), vehicle: saline) 129 and 138 % of control; (dose: 3.0 mg/kg/injection, schedule: Q01DX Z (ip), vehicle: saline) 130 % of control; (dose: 4.0 mg/kg/injection, schedule: Q01DX Z (ip), vehicle: saline) 133 and 144 % of control; (dose: 6.0 mg/kg/injection, schedule: Q01DX Z (ip), vehicle: saline) 128 and 138 % of control; (dose: 9.0 mg/kg/injection, schedule: Q01DX Z (ip), vehicle: saline) 126 % of control. Further, the survivor count reads like this: (dose: 21.0 mg/kg/injection, schedule: Q01DX Z (ip), vehicle: saline) 4 of 6 and 7 of 7; (dose: 32.0 mg/kg/injection, schedule: Q01DX Z (ip), vehicle: saline) 3 of 6. As to `CN(C)[Se](=O)Cl` (stereo not drawn), the survivor count (dose: 50.0 mg/kg/injection, schedule: Q04DX002 (ip), vehicle: saline with Tween-80) is 0 of 3; the survivor count under setting [2] was 0 of 3; the survivor count (dose: 200.0 mg/kg/injection, schedule: Q04DX002 (ip), vehicle: saline with Tween-80) is given as 0 of 3; the survivor count (dose: 400.0 mg/kg/injection, schedule: Q04DX002 (ip), vehicle: saline with Tween-80) is given as 0 of 3.

As for `CCOC(=O)c1ncc2cnccn12`, under setting [8], the survivor count is 4 of 6. For the compound `O=C(Nc1ccc(Cl)cc1Cl)P(=O)(O)c1ccccc1`, the survivor count (dose: 400.0 mg/kg/injection, schedule: Q04DX002 (ip), vehicle: Klucel (hydroxypropylcellulose) (HPC)) is 2 of 3. Take `CSc1ccc(NC(=O)Oc2ccccn2)cc1`: the survivor count is, setting by setting: (dose: 100.0 mg/kg/injection, schedule: Q04DX003 (ip), vehicle: saline with Tween-80) 6 of 6; under setting [7], 2 of 3. For the compound `COc1cc2c(cc1Cl)nc1c(=O)[nH]c(=O)nc-1n2CCN1CCCC1`, the T/C (dose: 35.0 mg/kg/injection, schedule: Q01DX Z (ip), vehicle: methylcellulose (MC)) was 127 % of control [6 of 7 alive]. As to `N#CC(O)C1(O)CCCCC1` (stereo not drawn), the survivor count runs as follows: under setting [9], 0 of 6; under setting [10], 0 of 6; under setting [8], 0 of 6. On to `Nc1nc(N)c(N=O)c(Nc2ccc(Cl)c(Cl)c2)n1`, for which the survivor count by setting is: (dose: 50.0 mg/kg/injection, schedule: Q01DX Z (ip), vehicle: carboxymethylcellulose (CMC)) 6 of 6; (dose: 200.0 mg/kg/injection, schedule: Q01DX Z (ip), vehicle: carboxymethylcellulose (CMC)) 6 of 6. For `CON(C)CCO`, the survivor count (dose: 400.0 mg/kg/injection, schedule: Q01DX001 (ip), vehicle: Klucel (hydroxypropylcellulose) (HPC)) is on record as 2 of 3. Regarding `N#Cc1cnn2c(=O)[nH]cnc12`, the survivor count (dose: 400.0 mg/kg/injection, schedule: Q01DX009 (ip), vehicle: saline sonified) is 5 of 6.

As for `CCOC(=O)/C(O)=C\c1cc(Cl)nnc1Cl`, for the setting “dose: 81.3 mg/kg/injection, schedule: Q04DX002 (ip), vehicle: Klucel (hydroxypropylcellulose) (HPC)”, the T/C is 126 % of control. As to `N#CC(C#N)=Cc1ccc(Cl)cc1`, where the note is “dose: 400.0 mg/kg/injection, schedule: Q01DX001 (ip), vehicle: other”, the survivor count is reported as 0 of 4. With `O=C(CCCN1CC=C(n2c(=O)[nH]c3ccccc32)CC1)c1ccc(F)cc1`, the survivor count is 2 of 4 under setting [1] and 4 of 4 under setting [6]. In the case of `CC(=O)C(CCC#N)(CCC#N)CCC#N`, the survivor count under setting [9] was 6 of 6. For the compound `O=C(Nc1ccc(CN2CCOCC2)cc1)c1ccc(C(=O)Nc2ccc(CN3CCOCC3)cc2)cc1`, the survivor count reads like this: (dose: 150.0 mg/kg/injection, schedule: Q01DX Z (ip), vehicle: water) 5 of 6; (dose: 300.0 mg/kg/injection, schedule: Q01DX Z (ip), vehicle: water) 2 of 6.

Turning to `O=C(CCl)c1ccc(O)c(O)c1`, the survivor count is reported as 6 of 6 (dose: 25.0 mg/kg/injection, schedule: Q01DX009 (ip), vehicle: saline); 4 of 6 (dose: 50.0 mg/kg/injection, schedule: Q04DX003 (ip), vehicle: saline); 1 of 6 under setting [9]; 1 of 6 under setting [10]. With `CC(N)Cc1ccc(O)cc1` (stereo not drawn), the survivor count under setting [5] is reported as 5 of 6. With `CC1(C)NC(=O)NC(=O)C1Br` (stereo not drawn), the survivor count (dose: 200.0 mg/kg/injection, schedule: Q01DX Z (ip), vehicle: methylcellulose (MC)) is reported as 3 of 6. As to `CCC([NH-])=O.CCC([NH-])=O.[Pt+2]`, the survivor count (dose: 400.0 mg/kg/injection, schedule: Q01DX009 (ip), vehicle: water) was 1 of 6. Turning to `COC1OC2COC(c3ccccc3)OC2C(O)C1OS(=O)(=O)c1ccc(C)cc1` (stereo not drawn), the survivor count under setting [4] was 1 of 6. Regarding `COc1ncnc2c1ccn2C1OC(CO)C(O)C1O` (stereo not drawn), the survivor count (dose: 200.0 mg/kg/injection, schedule: Q01DX001 (ip), vehicle: saline) was 0 of 4. As for `O=[N+]([O-])c1ccc(C[N+]2(CCC[N+]3(Cc4ccc([N+](=O)[O-])cc4)CCCC3)CCCC2)cc1`, the survivor count was 3 of 6 (dose: 37.5 mg/kg/injection, schedule: Q01DX001 (ip), vehicle: other); 0 of 6 (dose: 75.0 mg/kg/injection, schedule: Q01DX001 (ip), vehicle: other); 0 of 6 (dose: 150.0 mg/kg/injection, schedule: Q01DX001 (ip), vehicle: other); 1 of 6 (dose: 300.0 mg/kg/injection, schedule: Q01DX001 (ip), vehicle: other). As for `CCCCC(/C=N/N=C(N)N)=N\N=C(N)N`, the survivor count by setting is: (dose: 60.0 mg/kg/injection, schedule: Q01DX Z (ip), vehicle: saline) 4 of 6; (dose: 120.0 mg/kg/injection, schedule: Q01DX Z (ip), vehicle: saline) 0 of 6.
